Measurements published in patent US20240358829A1, “Lymphocyte Population and Methods for Producing Same” (AVM Biotechnology, LLC, priority 2021, published 2024).

Legend:
A20 B cell lymphoma = conditions: study A20_1, repeat 18 mg/kg HED; mice 1-10 and 1-5
Procedure: FIG. 10B. […] Mice were inoculated with A20 lymphoma 2×10^6 cells in 100 μL of PBS mixed with 100 μL of chilled Matrigel into their flank. Three, 24 and 48 hours later mice were euthanized and tumors, blood, bone marrow and thymus were taken and made into single cell suspensions for flow cytometry detection of live A20 cells.

[1] = tested on: CD56+γδTCR+ NKT-like cells; conditions: human cancer subjects
Procedure: For characterisation of the induced/mobilized population of NKT-like cells (AVM-NKT) in humans, whole blood from human subjects was drawn in K2 EDTA Vacutainer tube (367862, BD Biosciences, NJ) and shipped to AVM Biotechnology at room temperature. 100 μl of whole blood was stained with the following antibodies: CD45 AF700 (2D1), CD16 APC (3G8), INKT PECy7 (6B11), CD8 PE (SK1), CD14 FITC (M5E2), CD56 BV650 (5.1H11), γδTCR BV510 (B1), CD19 BV421 (HIB19), NKp44 APC (P44-8) (all from Biolegend, San Diego, CA) and CD3 APCVio770 (BW264/56), (Miltenyi Biotec, San Jose, CA), 7-AAD, (Biolegend, San Diego CA) was included to distinguish the live and dead cells. […] Healthy patient blood from BloodWorks (Seattle, WA), unstained and fluorescence minus one (FMO) were included as controls. 250 μl sample was analyzed on MACSQuant 16 (Serial #40150, Miltenyi Biotec, San Jose, CA) flow cytometer. Data was analyzed using Kaluza 2.1 (Beckman Coulter Lifesciences, Indianapolis, IN) software for different immune population. Data obtained from flow cytometry analyzed by Kaluza were combined to determine different cell populations gated from Live CD45 Lymphocytes: CD3+ T cell, CD8+ cytotoxic T cell, CD3+CD56+ (NKT cells) CD3-CD56+, CD3-CD56bright (NK cells) and CD3-CD19+ (B cells), CD3+γδTCR+ cells, CD3+γδTCR bright cells, CD3+iTCR+ cells, Live WBC CD3-CD16bright granulocytes, Live WBC CD3-CD14+ monocytes. […]

C[C@@H]1C[C@H]2[C@@H]3CCC4=CC(=O)C=C[C@]4(C)[C@@]3(F)[C@@H](O)C[C@]2(C)[C@@]1(O)C(=O)COP(=O)(O)O [AVM0703, dexamethasone sodium phosphate]
tumor necrosis in individual mice (A20 B cell lymphoma): Mouse 1-5 totally necrotic was dosed as shown here | production and mobilization of a γδ Natural Killer T-like cell (CD56+γδTCR+) [1]: induces the production and mobilization
